Where “and” joins values, the source holds several entries; their conditions need not be identical. Identical values can stand only once. Further values from the same series stand in other lists.
Experiments:
Format in all cases: biochemical
[1] = test system: sarcosine oxidase (Toyobo); experiment: Toyobo Sarcosine Oxidase Enzyme Absorbance with BSA and Proclin 300; conditions: no Proclin 300
Text: Absorbance measurements of the sarcosine oxidase enzyme(s) were taken via spectrophotometer for each aqueous solution (represented as columns 1-5 in Tables 1-4—column 6 is a blank), the absorbance being directly proportional to the enzyme activity being measured-which for Tables 1-4 is sarcosine oxidase enzyme activity. Accordingly, the higher the absorbance measurement, the higher the enzyme activity of sarcosine oxidase. […] In addition, the mean values, standard deviations, and coefficients of variation are also presented for the enzyme activity/absorbance of each aqueous solution. All measurements were taken at 37° C.

[2] = test system: sarcosine oxidase (BBI Solutions); experiment: BBI Solutions Sarcosine Oxidase Enzyme Absorbance with BSA and MIT; conditions: 37° C.
[3] = test system: sarcosine oxidase (Toyobo); experiment: Toyobo Sarcosine Oxidase Enzyme Absorbance with BSA and MIT; conditions: 37° C.

bovine serum albumin [BSA]
Absorbance, solutions 7-11 ([1]; Day 0, BSA 5 mg/mL only, line of 0.7% Proclin 300): 1.435 and 1.447 and 1.457
Absorbance, solutions 7-11 ([1]; Day 0, BSA 5 mg/mL only, line of 1.4% Proclin 300): 1.389
Absorbance, solutions 7-11 ([1]; Day 0, BSA 25 mg/mL only, line of 0.7% Proclin 300): 1.453 and 1.459 and 1.44
Absorbance, solutions 7-11 ([1]; Day 0, BSA 50 mg/mL only, line of 0.7% Proclin 300): 1.427 and 1.431 and 1.446 and 1.465
Absorbance, solutions 7-11 ([1]; Day 0, BSA 50 mg/mL only, line of 1.4% Proclin 300): 1.448 and 1.396
Absorbance, solutions 7-11 ([1]; Day 4, BSA 5 mg/mL only, line of 0.7% Proclin 300): 0.829 and 0.849 and 0.854 and 0.875 and 0.878
Absorbance, solutions 7-11 ([1]; Day 4, BSA 5 mg/mL only, line of 1.4% Proclin 300): 0.894 and 0.884 and 0.896 and 0.908 and 0.935
Absorbance, solutions 7-11 ([1]; Day 4, BSA 25 mg/mL only, line of 0.7% Proclin 300): 1.337 and 1.353 and 1.354 and 1.335 and 1.33
Absorbance, solutions 7-11 ([1]; Day 4, BSA 25 mg/mL only, line of 1.4% Proclin 300): 1.352 and 1.372 and 1.385 and 1.362 and 1.354
Absorbance, solutions 7-11 ([1]; Day 4, BSA 50 mg/mL only, line of 0.7% Proclin 300): 1.354 and 1.352 and 1.35 and 1.339 and 1.371
Absorbance, solutions 7-11 ([1]; Day 4, BSA 50 mg/mL only, line of 1.4% Proclin 300): 1.355 and 1.369 and 1.383 and 1.36 and 1.362
Absorbance, solutions 7-11 ([1]; Day 14, BSA 5 mg/mL only, line of 0.7% Proclin 300): 0.288 and 0.295 and 0.302 and 0.314 and 0.303
Absorbance, solutions 7-11 ([1]; Day 14, BSA 5 mg/mL only, line of 1.4% Proclin 300): 0.318 and 0.317 and 0.316 and 0.331 and 0.403
Absorbance, solutions 7-11 ([1]; Day 14, BSA 25 mg/mL only, line of 0.7% Proclin 300): 1.371 and 1.421 and 1.363 and 1.372 and 1.401
Absorbance, solutions 7-11 ([1]; Day 14, BSA 25 mg/mL only, line of 1.4% Proclin 300): 1.357 and 1.368 and 1.435 and 1.372 and 1.399
Absorbance, solutions 7-11 ([1]; Day 14, BSA 50 mg/mL only, line of 0.7% Proclin 300): 1.445 and 1.544 and 1.434 and 1.475 and 1.436
Absorbance, solutions 7-11 ([1]; Day 14, BSA 50 mg/mL only, line of 1.4% Proclin 300): 1.437 and 1.432 and 1.429 and 1.445 and 1.436
Sarcosine Oxidase Enzyme Absorbance, replicates 7-11 ([2]; Day 0, 5 mg/mL BSA only, no MIT (50 ppm MIT row)): 1.432 and 1.435 and 1.451 and 1.43
Sarcosine Oxidase Enzyme Absorbance, replicates 7-11 ([2]; Day 0, 5 mg/mL BSA only, no MIT (100 ppm MIT row)): 1.425
Sarcosine Oxidase Enzyme Absorbance, replicates 7-11 ([2]; Day 0, 25 mg/mL BSA only, no MIT (50 ppm MIT row)): 1.435 and 1.421 and 1.396 and 1.399
Sarcosine Oxidase Enzyme Absorbance, replicates 7-11 ([2]; Day 0, 25 mg/mL BSA only, no MIT (100 ppm MIT row)): 1.436
Sarcosine Oxidase Enzyme Absorbance, replicates 7-11 ([2]; Day 0, 50 mg/mL BSA only, no MIT (50 ppm MIT row)): 1.428 and 1.464 and 1.467 and 1.474
Sarcosine Oxidase Enzyme Absorbance, replicates 7-11 ([2]; Day 0, 50 mg/mL BSA only, no MIT (100 ppm MIT row)): 1.406 and 1.388 and 1.393 and 1.395 and 1.403
Sarcosine Oxidase Enzyme Absorbance, replicates 7-11 ([2]; Day 4, 5 mg/mL BSA only, no MIT (50 ppm MIT row)): 1.448 and 1.472 and 1.459 and 1.441 and 1.443
Sarcosine Oxidase Enzyme Absorbance, replicates 7-11 ([2]; Day 4, 5 mg/mL BSA only, no MIT (100 ppm MIT row)): 1.342 and 1.43 and 1.424 and 1.452 and 1.382
Sarcosine Oxidase Enzyme Absorbance, replicates 7-11 ([2]; Day 4, 25 mg/mL BSA only, no MIT (50 ppm MIT row)): 1.419 and 1.431 and 1.41 and 1.38 and 1.398
Sarcosine Oxidase Enzyme Absorbance, replicates 7-11 ([2]; Day 4, 25 mg/mL BSA only, no MIT (100 ppm MIT row)): 1.371 and 1.412 and 1.423 and 1.39 and 1.398
Sarcosine Oxidase Enzyme Absorbance, replicates 7-11 ([2]; Day 4, 50 mg/mL BSA only, no MIT (50 ppm MIT row)): 1.412 and 1.555 and 1.531 and 1.48 and 1.6
Sarcosine Oxidase Enzyme Absorbance, replicates 7-11 ([2]; Day 4, 50 mg/mL BSA only, no MIT (100 ppm MIT row)): 1.386 and 1.407 and 1.412 and 1.423 and 1.401
Sarcosine Oxidase Enzyme Absorbance, replicates 7-11 ([2]; Day 14, 5 mg/mL BSA only, no MIT (50 ppm MIT row)): 1.433 and 1.422 and 1.429 and 1.438 and 1.435
Sarcosine Oxidase Enzyme Absorbance, replicates 7-11 ([2]; Day 14, 5 mg/mL BSA only, no MIT (100 ppm MIT row)): 1.447 and 1.448 and 1.387 and 1.525 and 1.544
Sarcosine Oxidase Enzyme Absorbance, replicates 7-11 ([2]; Day 14, 25 mg/mL BSA only, no MIT (50 ppm MIT row)): 1.428 and 1.435 and 1.431 and 1.407 and 1.426
Sarcosine Oxidase Enzyme Absorbance, replicates 7-11 ([2]; Day 14, 25 mg/mL BSA only, no MIT (100 ppm MIT row)): 1.395 and 1.454 (2×) and 1.474 and 1.456
Sarcosine Oxidase Enzyme Absorbance, replicates 7-11 ([2]; Day 14, 50 mg/mL BSA only, no MIT (50 ppm MIT row)): 1.413 and 1.42 and 1.412 and 1.423 (2×)
Sarcosine Oxidase Enzyme Absorbance, replicates 7-11 ([2]; Day 14, 50 mg/mL BSA only, no MIT (100 ppm MIT row)): 1.489 and 1.51 and 1.464 and 1.486 and 1.48
Sarcosine Oxidase Enzyme Absorbance, solutions 1-5 ([3]; Day 0, 50 ppm MIT, 50 mg/mL BSA): 1.396 and 1.415
Sarcosine Oxidase Enzyme Absorbance, solutions 1-5 ([3]; Day 0, 100 ppm MIT, 5 mg/mL BSA): 1.437 and 1.434 and 1.433 and 1.43 and 1.438
Sarcosine Oxidase Enzyme Absorbance, solutions 1-5 ([3]; Day 0, 100 ppm MIT, 25 mg/mL BSA): 1.39 and 1.415 and 1.41 and 1.434
Sarcosine Oxidase Enzyme Absorbance, solutions 1-5 ([3]; Day 0, 100 ppm MIT, 50 mg/mL BSA): 1.393 and 1.406 and 1.419 and 1.417
Sarcosine Oxidase Enzyme Absorbance, solutions 1-5 ([3]; Day 4, 50 ppm MIT, 5 mg/mL BSA): 0.898 and 0.904 and 0.884 and 0.886 and 0.897
Sarcosine Oxidase Enzyme Absorbance, solutions 1-5 ([3]; Day 4, 50 ppm MIT, 25 mg/mL BSA): 1.409 and 1.394 and 1.393 and 1.392 and 1.395
Sarcosine Oxidase Enzyme Absorbance, solutions 1-5 ([3]; Day 4, 50 ppm MIT, 50 mg/mL BSA): 1.448 and 1.395 and 1.409 and 1.475 and 1.415
Sarcosine Oxidase Enzyme Absorbance, solutions 1-5 ([3]; Day 4, 100 ppm MIT, 5 mg/mL BSA): 0.952 and 0.938 and 0.967 and 0.949 and 0.972
Sarcosine Oxidase Enzyme Absorbance, solutions 1-5 ([3]; Day 4, 100 ppm MIT, 25 mg/mL BSA): 1.389 and 1.375 and 1.401 and 1.379 and 1.381
Sarcosine Oxidase Enzyme Absorbance, solutions 1-5 ([3]; Day 4, 100 ppm MIT, 50 mg/mL BSA): 1.412 and 1.401 and 1.39 and 1.416 and 1.405
Sarcosine Oxidase Enzyme Absorbance, solutions 1-5 ([3]; Day 14, 50 ppm MIT, 5 mg/mL BSA): 0.324 and 0.328 and 0.323 and 0.332 and 0.343
Sarcosine Oxidase Enzyme Absorbance, solutions 1-5 ([3]; Day 14, 50 ppm MIT, 25 mg/mL BSA): 1.427 and 1.41 and 1.42 and 1.457
Sarcosine Oxidase Enzyme Absorbance, solutions 1-5 ([3]; Day 14, 50 ppm MIT, 50 mg/mL BSA): 1.474 and 1.448 and 1.445 and 1.478 and 1.48
Sarcosine Oxidase Enzyme Absorbance, solutions 1-5 ([3]; Day 14, 100 ppm MIT, 5 mg/mL BSA): 0.35 and 0.353 and 0.356 and 0.347
Sarcosine Oxidase Enzyme Absorbance, solutions 1-5 ([3]; Day 14, 100 ppm MIT, 25 mg/mL BSA): 1.468 and 1.449 and 1.465 and 1.427 and 1.445
Sarcosine Oxidase Enzyme Absorbance, solutions 1-5 ([3]; Day 14, 100 ppm MIT, 50 mg/mL BSA): 1.46 and 1.461 and 1.467 and 1.462 and 1.475

— patent US11339419B2, “Scavenger protein(s) for improved preservation of analyte detection sensor(s) and method(s) of use thereof” (Siemens Healthcare Diagnostics Inc., priority 2017, dated 2022)
